These are yes or no findings as the source states them, for the method shown. Some binding calls cover weakened binding; strength is not graded here.
B1: ILB565 (peptide)
peptide: FHLPIHWHYQGQAGQGSATGGSSFNEDCMWDPLLMDCAYSP
B2: ILB539 (peptide)
peptide: TYLQLWYFIQGQAGQGSFNEDCMWDPLLMDCAYSP
B3: ILB568 (peptide)
peptide: DGSHPIVVVTEWFGQAGQGSFNEDCMWDPLLMDCAYSP
B4: ILB552 (peptide)
peptide: TDSWCHTLYWALQHCVAQE
B5: ILB569 (peptide)
peptide: VYWQAMNQDYGQAGQGSFNEDCMWDPLLMDCAYSP
B6: ILB570 (peptide)
peptide: PDSWCHTLYWDLLYCVNQE
B7: ILB529 (peptide)
peptide: TEKDPAQDWWGQAGQGSATGGSSFNEDCMWDPLLMDCAYSP
B8: ILB549 (peptide)
peptide: ETELKKPAMQGQAGQGSFNEDCMWDPLLMDCAYSP
B9: ILB544 (peptide)
peptide: YWWTIDYWPYGQAGQGSATGGSSFNEDCMWDPLLMDCAYSP
B10: ILB550 (peptide)
peptide: QDWHYPWVYQGQAGQGSFNEDCMWDPLLMDCAYSP
B11: ILB559 (peptide)
peptide: SCQFLEEYKDCRGQAGQGSATGGSSFNEDCMWDPLLMDCAYSP
B12: ILB541 (peptide)
peptide: VMEGHQFAQFGQAGQGSFNEDCMWDPLLMDCAYSP
B13: ILB573 (peptide)
peptide: NNMHPLWPISGQAGQGSATGGSSFNEDCMWDPLLMDCAYSP
B14: ILB572 (peptide)
peptide: DCAMWFMFKDQGQAGQGSATGGSSFNEDCMWDPLLMDCAYSP
B15: ILB562 (peptide)
peptide: TYYTHTAWDRGQAGQGSFNEDCMWDPLLMDCAYSP
B16: ILB554 (peptide)
peptide: APGVAMWMFIGQAGQGSFNEDCMWDPLLMDCAYSP
B17: ILB551 (peptide)
peptide: PLQKWEHIVNGQAGQGSFNEDCMWDPLLMDCAYSP
B18: ILB543 (peptide)
peptide: MEMVSAAWQEGQAGQGSFNEDCMWDPLLMDCAYSP
B19: ILB578 (peptide)
peptide: WWWDQHMLENGQAGQGSATGGSGSTASSFNEDCMWDPLLMDCAYSP
B20: ILB540 (peptide)
peptide: GRWWMVQWVEGQAGQGSFNEDCMWDPLLMDCAYSP
B21: ILB556 (peptide)
peptide: PDSSCHTLYWQLHHCARRE
B22: ILB576 (peptide)
peptide: EGYWRGPHWEGQAGQGSFNEDCMWDPLLMDCAYSP
B23: ILB558 (peptide)
peptide: ECSCAKSRYANGQAGQGSFNEDCMWDPLLMDCAYSP
B24: ILB561 (peptide)
peptide: SIYISYRQNHGQAGQGSATGGSGSTASSFNEDCMWDPLLMDCAYSP
B25: ILB524 (peptide)
peptide: QIDFKYMMWTGQAGQGSATGGSSFNEDCMWDPLLMDCAYSP
B26: ILB531 (peptide)
peptide: EYTNTSWKGHGQAGQGSATGGSSFNEDCMWDPLLMDCAYSP
B27: ILB534 (peptide)
peptide: YEEQQVDEFGGQAGQGSATGGSGSTASSFNEDCMWDPLLMDCAYSP
B28: ILB547 (peptide)
peptide: IMGMYEGFRTGQAGQGSFNEDCMWDPLLMDCAYSP
B29: ILB548 (peptide)
peptide: IERAYHSTRWGQAGQGSATGGSSFNEDCMWDPLLMDCAYSP
B30: ILB579 (peptide)
peptide: PCHWAQQPCAGQAGQGSFNEDCMWDPLLMDCAYSP
B31: ILB535 (peptide)
peptide: AWWQGQRPYNGQAGQGSFNEDCMWDPLLMDCAYSP
B32: ILB557 (peptide)
peptide: KWNQQWTIARGQAGQGSFNEDCMWDPLLMDCAYSP
B33: ILB566 (peptide)
peptide: LIVLQPKNMVGQAGQGSFNEDCMWDPLLMDCAYSP
B34: ILB533 (peptide)
peptide: IKPSSHWWWQGQAGQGSATGGSSFNEDCMWDPLLMDCAYSP
B35: ILB536 (peptide)
peptide: PPLWMSQMVPQGSATGGSSFNEDCMWDPLLMDCAYSP
B36: ILB577 (peptide)
peptide: YRMKWDFMLHGQAGQGSFNEDCMWDPLLMDCAYSP
B37: ILB525 (peptide)
peptide: QMQWLDDEFYGQAGQGSATGGSSFNEDCMWDPLLMDCAYSP
B38: ILB567 (peptide)
peptide: TYSWRDWGMYGQAGQGSFNEDCMWDPLLMDCAYSP
B39: ILB532 (peptide)
peptide: QMEVAHVVDLGQAGQGSATGGSSFNEDCMWDPLLMDCAYSP
B40: ILB563 (peptide)
peptide: LLVEFFKHTYGQAGQGSFNEDCMWDPLLMDCAYSP
B41: ILB553 (peptide)
peptide: WQNPWPVRFWGQAGQGSATGGSGSTASSFNEDCMWDPLLMDCAYSP
B42: ILB564 (peptide)
peptide: FQGHWHIKKQGQAGQGSATGGSGSTASSGSGSSFNEDCMWDPLLMDCAYSP
B43: ILB580 (peptide)
peptide: FFDFFSFSNSGQAGQGSATGGSSFNEDCMWDPLLMDCAYSP
B44: ILB527 (peptide)
peptide: QAWKLMWFAWGQAGQGSATGGSSFNEDCMWDPLLMDCAYSP
B45: ILB528 (peptide)
peptide: MPSTQINQWVGQAGQGSFNEDCMWDPLLMDCAYSP
B46: ILB546 (peptide)
peptide: IMWAGPIFPNGQAGQGSFNEDCMWDPLLMDCAYSP
B47: ILB542 (peptide)
peptide: WWSPSYAWVMGQAGQGSFNEDCMWDPLLMDCAYSP
B48: ILB574 (peptide)
peptide: FWYSWNPQWDGQAGQGSFNEDCMWDPLLMDCAYSP
B49: ILB545 (peptide)
peptide: YPMYYYQDISGQAGQGSFNEDCMWDPLLMDCAYSP
B50: ILB526 (peptide)
peptide: PVQQEWMQWYGQAGQGSFNEDCMWDPLLMDCAYSP
B51: ILB538 (peptide)
peptide: DCSPDVHDCHGQAGQGSATGGSSFNEDCMWDPLLMDCAYSP
B52: ILB537 (peptide)
peptide: VEHLSHSYVLGQAGQGSATGGSSFNEDCMWDPLLMDCAYSP
B53: ILB560 (peptide)
peptide: VPSLIYHTYYGQAGQGSATGGSSFNEDCMWDPLLMDCAYSP
B54: ILB555 (peptide)
peptide: QSNGAHAWVWGQAGQGSATGGSGSTASSFNEDCMWDPLLMDCAYSP

By UniProt entry, the sequences of proteins in these tests, tags left out. Residues count along the entry.
UniProt P05231, residues 30-212: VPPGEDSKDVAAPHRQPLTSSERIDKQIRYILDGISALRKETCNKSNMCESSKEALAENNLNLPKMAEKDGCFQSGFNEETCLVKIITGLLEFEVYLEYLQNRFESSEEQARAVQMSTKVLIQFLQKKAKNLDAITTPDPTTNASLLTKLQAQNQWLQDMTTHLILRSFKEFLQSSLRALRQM

The binders below were run against IL6 (UniProt P05231) (assay: MRD identification, Example 48).

binding, binds:
B1, B2, B3, B4, B5, B6, B7, B8, B9, B10, B11, B12, B13, B14, B15, B16, B17, B18, B19, B20, B21, B22, B23, B24, B25, B26, B27, B28, B29, B30, B31, B32, B33, B34, B35, B36, B37, B38, B39, B40, B41, B42, B43, B44, B45, B46, B47, B48, B49, B50, B51, B52, B53, B54
